Biological target: holo-transferrin protein (Homo sapiens, UniProt P02787)

Protein sequences, listed by entry. Tags and fused reporters are not part of them. Residues count along the entry.
UniProt P02787, 20-698: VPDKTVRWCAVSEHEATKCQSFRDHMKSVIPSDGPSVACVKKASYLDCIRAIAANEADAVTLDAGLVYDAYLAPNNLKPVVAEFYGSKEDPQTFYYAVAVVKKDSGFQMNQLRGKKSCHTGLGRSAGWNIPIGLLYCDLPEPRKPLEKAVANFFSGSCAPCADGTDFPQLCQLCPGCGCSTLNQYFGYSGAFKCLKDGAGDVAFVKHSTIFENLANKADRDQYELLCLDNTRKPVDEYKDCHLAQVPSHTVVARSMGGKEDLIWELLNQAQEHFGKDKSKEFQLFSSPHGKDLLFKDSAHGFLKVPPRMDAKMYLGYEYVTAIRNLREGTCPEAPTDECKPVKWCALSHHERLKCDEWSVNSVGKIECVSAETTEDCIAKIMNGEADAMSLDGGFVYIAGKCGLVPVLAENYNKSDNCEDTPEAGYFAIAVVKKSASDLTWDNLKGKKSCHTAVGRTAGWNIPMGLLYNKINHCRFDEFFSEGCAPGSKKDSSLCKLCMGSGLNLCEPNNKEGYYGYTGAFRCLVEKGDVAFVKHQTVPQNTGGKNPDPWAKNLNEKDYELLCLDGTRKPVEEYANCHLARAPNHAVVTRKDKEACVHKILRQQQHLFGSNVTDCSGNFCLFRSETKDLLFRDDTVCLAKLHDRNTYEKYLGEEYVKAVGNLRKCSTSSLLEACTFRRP

For `O=C1[O][Pt]2([NH][C@@H]3CCCC[C@H]3[NH]2)[O]C1=O` [oxaliplatin], which “current blockade pattern of holo-transferrin with ligand versus protein alone” value is on record?
Its value is “a distinct change in the current blockade pattern was observed”.

Reference: patent publication US20260168983A1, “YaxAB NANOPORE, NANOPORE SYSTEM COMPRISING SAME AND APPLICATIONS THEREOF” (KOREA RESEARCH INSTITUTE OF BIOSCIENCE AND BIOTECHNOLOGY, priority 2022, published 2026)
